From the supplement of paper PMC12819154, “High-throughput peptide-centric local stability assay extends protein–ligand identification to membrane proteins, tissues and bacteria” (Nature Structural & Molecular Biology, 2025) come the findings set out here.

Chains of the proteins cited; added tags and fusions are not shown. Lines headed by an entry give the natural chain unless they say otherwise; changes in a name come on top.
UniProt P52133: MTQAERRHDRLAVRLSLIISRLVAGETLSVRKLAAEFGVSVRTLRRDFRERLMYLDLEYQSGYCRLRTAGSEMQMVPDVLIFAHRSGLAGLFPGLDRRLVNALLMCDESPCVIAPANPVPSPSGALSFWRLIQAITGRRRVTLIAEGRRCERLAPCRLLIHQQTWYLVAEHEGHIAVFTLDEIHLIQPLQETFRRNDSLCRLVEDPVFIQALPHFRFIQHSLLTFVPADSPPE
UniProt P46854: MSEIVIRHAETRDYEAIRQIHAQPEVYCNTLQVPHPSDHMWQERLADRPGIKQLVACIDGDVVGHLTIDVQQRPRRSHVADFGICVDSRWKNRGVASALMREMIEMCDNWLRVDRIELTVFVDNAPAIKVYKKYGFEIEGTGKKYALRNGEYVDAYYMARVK
UniProt P52647: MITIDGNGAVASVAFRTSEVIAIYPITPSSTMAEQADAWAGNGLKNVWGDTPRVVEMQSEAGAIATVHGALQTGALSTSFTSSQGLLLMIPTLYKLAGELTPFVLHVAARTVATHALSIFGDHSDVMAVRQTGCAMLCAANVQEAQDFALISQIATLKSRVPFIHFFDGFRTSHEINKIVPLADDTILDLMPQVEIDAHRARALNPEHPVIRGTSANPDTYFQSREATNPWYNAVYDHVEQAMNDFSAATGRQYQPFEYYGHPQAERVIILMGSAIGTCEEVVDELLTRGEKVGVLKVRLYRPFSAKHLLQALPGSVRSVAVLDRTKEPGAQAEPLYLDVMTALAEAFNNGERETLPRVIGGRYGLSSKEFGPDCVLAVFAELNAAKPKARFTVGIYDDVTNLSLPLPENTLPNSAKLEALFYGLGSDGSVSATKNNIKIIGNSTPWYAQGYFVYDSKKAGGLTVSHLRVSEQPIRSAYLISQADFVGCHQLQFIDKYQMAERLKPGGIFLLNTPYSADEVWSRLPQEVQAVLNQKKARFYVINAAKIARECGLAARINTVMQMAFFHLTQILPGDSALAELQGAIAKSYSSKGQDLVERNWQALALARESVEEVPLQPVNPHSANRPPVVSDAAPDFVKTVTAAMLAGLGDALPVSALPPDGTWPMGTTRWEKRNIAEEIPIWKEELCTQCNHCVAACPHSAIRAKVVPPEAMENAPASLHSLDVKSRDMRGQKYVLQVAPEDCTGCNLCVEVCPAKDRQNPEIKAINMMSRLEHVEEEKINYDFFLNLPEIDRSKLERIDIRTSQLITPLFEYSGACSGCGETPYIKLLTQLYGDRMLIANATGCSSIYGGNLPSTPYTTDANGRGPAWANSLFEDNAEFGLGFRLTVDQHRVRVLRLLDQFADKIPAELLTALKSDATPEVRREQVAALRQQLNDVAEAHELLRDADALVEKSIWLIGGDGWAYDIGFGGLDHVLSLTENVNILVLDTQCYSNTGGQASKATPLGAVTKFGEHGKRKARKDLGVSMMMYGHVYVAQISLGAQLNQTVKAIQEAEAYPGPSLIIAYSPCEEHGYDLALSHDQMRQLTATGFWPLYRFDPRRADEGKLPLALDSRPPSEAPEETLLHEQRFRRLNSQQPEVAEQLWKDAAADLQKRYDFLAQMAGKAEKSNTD
UniProt P71243: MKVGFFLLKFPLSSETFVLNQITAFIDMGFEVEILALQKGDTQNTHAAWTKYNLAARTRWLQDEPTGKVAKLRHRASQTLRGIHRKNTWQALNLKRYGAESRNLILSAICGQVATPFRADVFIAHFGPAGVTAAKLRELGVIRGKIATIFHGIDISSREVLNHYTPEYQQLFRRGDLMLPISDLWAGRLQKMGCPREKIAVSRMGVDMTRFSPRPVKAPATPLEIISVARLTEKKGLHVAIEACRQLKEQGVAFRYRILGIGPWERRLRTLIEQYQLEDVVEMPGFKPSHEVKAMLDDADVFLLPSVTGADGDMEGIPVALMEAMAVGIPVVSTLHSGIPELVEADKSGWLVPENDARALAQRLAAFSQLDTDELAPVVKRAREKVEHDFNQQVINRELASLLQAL
UniProt P46855: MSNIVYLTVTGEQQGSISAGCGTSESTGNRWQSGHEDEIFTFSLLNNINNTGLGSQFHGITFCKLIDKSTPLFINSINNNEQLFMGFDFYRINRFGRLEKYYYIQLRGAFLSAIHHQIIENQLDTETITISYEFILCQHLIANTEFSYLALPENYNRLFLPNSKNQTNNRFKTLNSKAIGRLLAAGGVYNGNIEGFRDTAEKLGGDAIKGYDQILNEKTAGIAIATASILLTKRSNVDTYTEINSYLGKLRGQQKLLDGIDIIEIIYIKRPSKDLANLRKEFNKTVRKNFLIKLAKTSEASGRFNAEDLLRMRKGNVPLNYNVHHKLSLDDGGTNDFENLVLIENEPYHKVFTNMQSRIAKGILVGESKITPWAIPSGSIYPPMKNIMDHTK
UniProt P46474: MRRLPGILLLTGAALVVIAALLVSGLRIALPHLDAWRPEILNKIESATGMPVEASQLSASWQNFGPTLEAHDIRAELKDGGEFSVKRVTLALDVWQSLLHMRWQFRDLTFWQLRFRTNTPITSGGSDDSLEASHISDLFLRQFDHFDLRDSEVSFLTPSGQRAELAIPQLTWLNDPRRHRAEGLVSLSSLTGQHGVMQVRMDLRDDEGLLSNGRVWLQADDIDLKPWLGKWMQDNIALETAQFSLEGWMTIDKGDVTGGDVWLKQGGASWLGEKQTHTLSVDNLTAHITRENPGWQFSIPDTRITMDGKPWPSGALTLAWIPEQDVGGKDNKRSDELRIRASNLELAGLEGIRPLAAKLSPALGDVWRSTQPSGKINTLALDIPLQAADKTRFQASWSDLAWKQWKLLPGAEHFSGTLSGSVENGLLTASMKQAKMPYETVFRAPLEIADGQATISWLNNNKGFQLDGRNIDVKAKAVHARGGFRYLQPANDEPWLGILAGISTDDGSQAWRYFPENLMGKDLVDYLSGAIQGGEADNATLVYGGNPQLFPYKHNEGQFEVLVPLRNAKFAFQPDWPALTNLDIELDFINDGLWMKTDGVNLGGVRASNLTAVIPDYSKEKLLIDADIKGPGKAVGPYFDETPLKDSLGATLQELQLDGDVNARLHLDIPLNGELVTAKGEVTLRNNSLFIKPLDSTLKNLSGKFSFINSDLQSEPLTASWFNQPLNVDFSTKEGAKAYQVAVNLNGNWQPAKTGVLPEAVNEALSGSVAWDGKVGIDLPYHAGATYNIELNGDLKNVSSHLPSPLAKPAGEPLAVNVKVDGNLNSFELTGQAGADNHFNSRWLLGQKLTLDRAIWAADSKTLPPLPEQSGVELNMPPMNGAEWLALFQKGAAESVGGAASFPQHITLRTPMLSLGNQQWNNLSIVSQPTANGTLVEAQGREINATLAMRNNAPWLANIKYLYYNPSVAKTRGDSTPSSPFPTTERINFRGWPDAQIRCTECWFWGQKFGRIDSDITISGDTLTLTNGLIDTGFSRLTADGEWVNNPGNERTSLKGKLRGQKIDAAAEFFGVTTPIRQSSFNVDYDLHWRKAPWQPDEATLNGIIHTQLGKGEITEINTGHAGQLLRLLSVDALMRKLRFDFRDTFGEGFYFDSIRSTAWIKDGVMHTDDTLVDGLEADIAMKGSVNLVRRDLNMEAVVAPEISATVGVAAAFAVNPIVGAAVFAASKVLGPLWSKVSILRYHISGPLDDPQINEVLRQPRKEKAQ
UniProt P75862: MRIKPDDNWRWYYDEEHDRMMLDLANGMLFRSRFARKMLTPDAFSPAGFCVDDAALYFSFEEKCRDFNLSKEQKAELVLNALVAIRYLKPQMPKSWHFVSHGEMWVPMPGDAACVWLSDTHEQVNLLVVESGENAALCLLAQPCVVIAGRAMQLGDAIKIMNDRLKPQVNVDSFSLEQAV
UniProt P52598: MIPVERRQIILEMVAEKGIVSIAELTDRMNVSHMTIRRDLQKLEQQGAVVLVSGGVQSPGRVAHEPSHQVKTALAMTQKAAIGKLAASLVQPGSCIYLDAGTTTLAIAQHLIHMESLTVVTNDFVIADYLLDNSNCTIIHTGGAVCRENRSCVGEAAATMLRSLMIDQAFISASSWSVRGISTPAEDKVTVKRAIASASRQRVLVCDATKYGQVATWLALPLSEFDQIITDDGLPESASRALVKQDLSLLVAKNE
UniProt P52108: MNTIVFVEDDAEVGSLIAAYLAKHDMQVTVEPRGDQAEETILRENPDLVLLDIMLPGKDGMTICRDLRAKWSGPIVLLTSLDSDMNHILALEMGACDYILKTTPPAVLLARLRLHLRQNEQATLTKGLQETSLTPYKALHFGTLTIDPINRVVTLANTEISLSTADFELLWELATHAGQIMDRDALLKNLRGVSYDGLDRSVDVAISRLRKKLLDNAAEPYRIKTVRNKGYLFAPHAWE
UniProt P75682: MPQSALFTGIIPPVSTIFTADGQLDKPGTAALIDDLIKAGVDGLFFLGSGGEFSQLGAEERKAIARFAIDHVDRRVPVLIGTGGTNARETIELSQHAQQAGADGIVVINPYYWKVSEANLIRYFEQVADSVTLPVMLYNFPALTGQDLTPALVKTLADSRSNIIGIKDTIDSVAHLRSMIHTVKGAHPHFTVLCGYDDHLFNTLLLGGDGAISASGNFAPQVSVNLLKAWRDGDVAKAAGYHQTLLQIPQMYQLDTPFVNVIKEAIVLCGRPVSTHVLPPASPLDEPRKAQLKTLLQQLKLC
UniProt P52007: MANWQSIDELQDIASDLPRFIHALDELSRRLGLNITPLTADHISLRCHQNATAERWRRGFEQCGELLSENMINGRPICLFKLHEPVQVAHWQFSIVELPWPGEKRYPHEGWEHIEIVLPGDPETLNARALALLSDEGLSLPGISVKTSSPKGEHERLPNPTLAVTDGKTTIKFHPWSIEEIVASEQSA
UniProt P75797: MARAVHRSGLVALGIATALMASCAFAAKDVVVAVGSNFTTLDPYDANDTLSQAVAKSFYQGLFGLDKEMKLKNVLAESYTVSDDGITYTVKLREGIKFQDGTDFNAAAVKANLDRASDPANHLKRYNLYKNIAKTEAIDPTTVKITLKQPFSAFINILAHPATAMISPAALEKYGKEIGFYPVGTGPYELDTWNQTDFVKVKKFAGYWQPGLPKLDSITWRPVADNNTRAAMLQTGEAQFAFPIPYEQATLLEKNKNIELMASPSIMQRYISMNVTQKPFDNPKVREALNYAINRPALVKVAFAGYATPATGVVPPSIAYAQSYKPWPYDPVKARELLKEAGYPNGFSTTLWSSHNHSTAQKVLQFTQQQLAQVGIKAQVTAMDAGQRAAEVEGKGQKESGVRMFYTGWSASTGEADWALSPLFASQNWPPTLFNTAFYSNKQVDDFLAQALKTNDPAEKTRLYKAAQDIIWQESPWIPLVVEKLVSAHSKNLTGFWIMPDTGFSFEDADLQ
UniProt P52097: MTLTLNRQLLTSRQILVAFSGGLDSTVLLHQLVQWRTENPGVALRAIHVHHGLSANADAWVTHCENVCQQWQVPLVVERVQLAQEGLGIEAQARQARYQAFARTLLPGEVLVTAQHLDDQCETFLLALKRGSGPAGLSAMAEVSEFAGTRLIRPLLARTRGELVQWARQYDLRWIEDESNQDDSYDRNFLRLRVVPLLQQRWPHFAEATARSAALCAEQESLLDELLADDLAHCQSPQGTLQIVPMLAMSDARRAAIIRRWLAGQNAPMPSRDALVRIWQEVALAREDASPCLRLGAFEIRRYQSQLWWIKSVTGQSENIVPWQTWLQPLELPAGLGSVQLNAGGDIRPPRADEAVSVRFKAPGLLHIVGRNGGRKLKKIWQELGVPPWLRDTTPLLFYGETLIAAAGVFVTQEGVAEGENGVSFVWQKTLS
UniProt P64624: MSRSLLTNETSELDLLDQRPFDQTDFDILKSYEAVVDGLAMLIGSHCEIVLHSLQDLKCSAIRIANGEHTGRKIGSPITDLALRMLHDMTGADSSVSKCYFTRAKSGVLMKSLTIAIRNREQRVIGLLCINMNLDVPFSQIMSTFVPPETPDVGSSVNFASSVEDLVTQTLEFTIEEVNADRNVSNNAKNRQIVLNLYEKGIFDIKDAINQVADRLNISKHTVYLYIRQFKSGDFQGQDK
UniProt P46122: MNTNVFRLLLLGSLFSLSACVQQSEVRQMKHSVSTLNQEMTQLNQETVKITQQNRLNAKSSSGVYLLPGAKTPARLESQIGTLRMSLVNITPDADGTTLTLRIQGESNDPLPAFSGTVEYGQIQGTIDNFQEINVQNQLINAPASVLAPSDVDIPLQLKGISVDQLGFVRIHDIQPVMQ
UniProt P75734: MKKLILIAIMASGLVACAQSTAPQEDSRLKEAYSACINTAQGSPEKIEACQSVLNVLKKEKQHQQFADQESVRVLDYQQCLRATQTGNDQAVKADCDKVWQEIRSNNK
UniProt P75809: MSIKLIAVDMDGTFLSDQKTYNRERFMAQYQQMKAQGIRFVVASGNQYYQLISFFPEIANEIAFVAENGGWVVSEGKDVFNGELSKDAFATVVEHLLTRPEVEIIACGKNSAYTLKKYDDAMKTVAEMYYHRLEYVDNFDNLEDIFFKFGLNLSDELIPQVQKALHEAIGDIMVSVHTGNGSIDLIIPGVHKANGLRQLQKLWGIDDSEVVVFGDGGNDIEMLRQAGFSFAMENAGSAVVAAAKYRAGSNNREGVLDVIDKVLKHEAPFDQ

Some of the results follow. Most entries show no effect beyond the scatter of the controls.

Compound in this test: CC1(C)S[C@@H]2[C@H](NC(=O)[C@H](N)c3ccccc3)C(=O)N2[C@H]1C(=O)O [ampicillin]
The experiment in a line: log2 fold change of tryptic peptide abundance, ligand vs vehicle (limited proteolysis) (log2 ratio); higher = more trypsin-susceptible (destabilized). The conditions noted are these: ligand concentration: 10 uM; sample: E. coli crude lysate.
For “UniProt P52133 (peptide sequence: LVAGETLSVR, peptide start residue: 22)”, the log2 fold change came to 0.016.

Turning to “UniProt P75831 (peptide sequence: VKEGFDSAEAEQQLTR, peptide start residue: 476)”, the log2 fold change amounted to 0.132. In the case of “UniProt P52645 (peptide sequence: LSVLTQGQAGK, peptide start residue: 299)” it was -0.114. Consider “UniProt P56580 (peptide sequence: RRIPTINIHSTGK, peptide start residue: 83)”, for which the log2 fold change amounted to 0.765.

For “UniProt P75838 (peptide sequence: DKECALCFTNGK, peptide start residue: 50)”, the log2 fold change turned out to be 0.175. For “UniProt P55135 (peptide sequence: ACLGSLQAMR, peptide start residue: 178)”, the log2 fold change turned out to be 0.228. On to “UniProt P52123 (peptide sequence: SKAEVYHIIQLK, peptide start residue: 221)”, for which the log2 fold change is -0.507. The same measure for “UniProt P46854 (peptide sequence: LADRPGIK, peptide start residue: 45)”: -0.296; for “UniProt P52647 (peptide sequence: LLDQFADKIPAELLTALK, peptide start residue: 900)”: -0.634; for “UniProt P71243 (peptide sequence: IATIFHGIDISSR, peptide start residue: 146)”: -0.28. The same measure for “UniProt P46855 (peptide sequence: INRFGRLEK, peptide start residue: 92)”: -0.226. Consider “UniProt P46474 (peptide sequence: AIWAADSK, peptide start residue: 854)”, for which the log2 fold change is -0.211.

In the case of “UniProt P63201 (peptide sequence: MYTSESLIK, peptide start residue: 162)”, the log2 fold change was -0.12. In the case of “UniProt P75862 (peptide sequence: YLKPQMPK, peptide start residue: 87)”, the log2 fold change came to 0.23. In the case of “UniProt P75792 (peptide sequence: FMAQYQELK, peptide start residue: 26)”, the log2 fold change was -0.291.

“UniProt P52598 (peptide sequence: VAHEPSHQVK, peptide start residue: 62)”: the log2 fold change was -0.171. Turning to “UniProt P52108 (peptide sequence: ALHFGTLTIDPINR, peptide start residue: 138)”, the log2 fold change amounted to 0.169. In the case of “UniProt P52076 (peptide sequence: TVHGIGYTLGEK, peptide start residue: 208)” it was -0.236; in that of “UniProt P75682 (peptide sequence: SNIIGIKDTIDSVAHLR, peptide start residue: 161)”, -0.245; in that of “UniProt P52007 (peptide sequence: RLGLNITPLTADHISLR, peptide start residue: 30)”, 0.643.

For “UniProt P75843 (peptide sequence: ASLEDIPATISR, peptide start residue: 29)”, the log2 fold change is -0.353. In the case of “UniProt P75797 (peptide sequence: LDSITWRPVADNNTR, peptide start residue: 215)” it was -0.283; in that of “UniProt P46144 (peptide sequence: LLREEFEQFPAEK, peptide start residue: 84)”, -0.53; in that of “UniProt P52097 (peptide sequence: EDASPCLR, peptide start residue: 287)”, -0.285.

As to “UniProt P56258 (peptide sequence: MTILVGNSGDR, peptide start residue: 184)”, the log2 fold change was -0.417. In the case of “UniProt P64624 (peptide sequence: MLHDMTGADSSVSKCYFTR, peptide start residue: 85)” it was -0.328; in that of “UniProt P52130 (peptide sequence: IIDEQDVPTHILSK, peptide start residue: 80)”, -0.33; in that of “UniProt P46122 (peptide sequence: IHDIQPVMQ, peptide start residue: 171)”, -0.101. In the case of “UniProt P69922 (peptide sequence: YGEDENNK, peptide start residue: 240)” it was -0.453; in that of “UniProt P68398 (peptide sequence: EVPVGAVLVHNNR, peptide start residue: 27)”, -0.344.

Turning to “UniProt P75734 (peptide sequence: VLDYQQCLR, peptide start residue: 74)”, the log2 fold change is -0.142. In the case of “UniProt P75809 (peptide sequence: KYDDAMK, peptide start residue: 117)” it was 0.471.
